Measurements reported in article PMC10726440, “N-Biphenyl Pyrrolinones and Dibenzofurans as RNA-Binding Protein LIN28 Inhibitors Disrupting the LIN28–Let-7 Interaction” (ACS Medicinal Chemistry Letters, 2023).

Columns and labels:
[1] = target: T1, LIN28A(16-187) (UniProt Q9H9Z2); assay: EMSA; details: 10 nM protein, 5 nM RNA, 50 uM ZnCl2, complex control of inhibitor assay; 50 mM Tris pH 7.5, 100 mM NaCl, 10 mM beta-mercaptoethanol, 50 uM ZnCl2, 2% DMSO, 0.01% Tween-20, 12% glycerol, room temperature; native PAGE 0.25x TAE at 4 C; recombinant protein; residues 16-187; label: 3'-Cy3
T1 sequence (looked up): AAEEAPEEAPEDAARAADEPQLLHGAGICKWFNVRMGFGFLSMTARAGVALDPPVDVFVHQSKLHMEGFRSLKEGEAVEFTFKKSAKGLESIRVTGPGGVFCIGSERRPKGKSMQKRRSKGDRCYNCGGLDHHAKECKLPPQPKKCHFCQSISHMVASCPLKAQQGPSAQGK

[2] = target: T2, LIN28B CSD (24-111) (UniProt Q6ZN17); assay: EMSA; details: 200 nM protein, 5 nM RNA, 50 uM ZnCl2, complex control of inhibitor assay; 50 mM Tris pH 7.5, 100 mM NaCl, 10 mM beta-mercaptoethanol, 50 uM ZnCl2, 2% DMSO, 0.01% Tween-20, 12% glycerol, room temperature; native PAGE 0.25x TAE at 4 C; recombinant protein; residues 24-111; label: 3'-Cy3
T2 sequence (looked up): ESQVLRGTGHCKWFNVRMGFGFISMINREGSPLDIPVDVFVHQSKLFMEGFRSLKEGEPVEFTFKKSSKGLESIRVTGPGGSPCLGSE

Q: Which results are given for “GGGGUAGUGAUUUUACCCUGUUUAGGAGAU [pre-E let-7f-1-Cy3]”?
A: binding result [1]: binds; binding result [2]: binds

Construct, isoform or probe ends are uncertain for at least one entry. At least one verdict was read from the data and is not stated in words by the source. Where a protein sequence is shown, tags need not be part of it.
